Source: patent publication US8883723B2, “Conjugate of insulin and vitamin B12 for oral delivery” (Syracuse University, priority 2007, dated 2014)
Some of these results come from one statement about several compounds together.

Assay: Melting circular dichroism studies (222 nm)
Format: physicochemical
Conditions: CD, 50 mM HEPES pH 9.7, 25 mM carbonate, 10 mM EDTA
Procedure: Melting circular dichroism (CD) studies. Circular dichroism (CD) was performed on an Aviv model 202 spectrometer set at 222 nm with a 1 mL Quartz cuvette. All samples were prepared in 50 mM HEPES buffer (pH 9.7) with 25 mM carbonate and 10 mM EDTA and heated from 25 to 80° C. in 1° increments then cooled from 80 to 25° C. in the same increment. Sample concentrations ranged from 1.00 μM to 1.35 μM. […] All results were duplicated per batch and run for every batch prior to in vivo testing.

Substance | heating temperature resulting in irreversible unfolding [°C]
B12-insulin conjugate: Bovine insulin conjugated using CDI at B strand lysine29 to the 5′-hydroxyl group of B12; carbamate linked conjugate | > 85
insulin | > 85
